Common to all, as to experiment: co-IP
Experiment [1] has as its target T1, GFP-tagged Lrif1 long isoform, m1 mutant (R732E/L733A/K734E) (mouse) (UniProt Q8CDD9).
T1 sequence: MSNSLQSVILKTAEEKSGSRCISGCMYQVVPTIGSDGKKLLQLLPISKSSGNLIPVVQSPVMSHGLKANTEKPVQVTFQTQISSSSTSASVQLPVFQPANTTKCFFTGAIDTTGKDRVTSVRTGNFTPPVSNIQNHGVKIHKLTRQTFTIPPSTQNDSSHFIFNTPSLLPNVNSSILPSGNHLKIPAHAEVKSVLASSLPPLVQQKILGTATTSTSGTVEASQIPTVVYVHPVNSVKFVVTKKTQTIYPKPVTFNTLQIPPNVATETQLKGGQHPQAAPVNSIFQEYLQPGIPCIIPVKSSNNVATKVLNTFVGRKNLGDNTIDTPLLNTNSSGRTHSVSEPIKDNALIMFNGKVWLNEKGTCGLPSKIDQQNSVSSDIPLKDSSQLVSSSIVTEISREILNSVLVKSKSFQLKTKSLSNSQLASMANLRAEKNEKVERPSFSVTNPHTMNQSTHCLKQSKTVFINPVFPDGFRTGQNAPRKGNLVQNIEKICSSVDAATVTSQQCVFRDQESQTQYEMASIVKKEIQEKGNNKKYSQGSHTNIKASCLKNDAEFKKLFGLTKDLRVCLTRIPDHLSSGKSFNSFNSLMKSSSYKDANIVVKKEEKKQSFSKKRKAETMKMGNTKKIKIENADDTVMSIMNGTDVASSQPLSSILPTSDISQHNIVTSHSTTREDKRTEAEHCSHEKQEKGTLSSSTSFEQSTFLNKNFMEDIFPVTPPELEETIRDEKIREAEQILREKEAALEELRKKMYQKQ

Sequences of proteins named here, by UniProt entry; tags and fusion partners are left off.
UniProt Q62318: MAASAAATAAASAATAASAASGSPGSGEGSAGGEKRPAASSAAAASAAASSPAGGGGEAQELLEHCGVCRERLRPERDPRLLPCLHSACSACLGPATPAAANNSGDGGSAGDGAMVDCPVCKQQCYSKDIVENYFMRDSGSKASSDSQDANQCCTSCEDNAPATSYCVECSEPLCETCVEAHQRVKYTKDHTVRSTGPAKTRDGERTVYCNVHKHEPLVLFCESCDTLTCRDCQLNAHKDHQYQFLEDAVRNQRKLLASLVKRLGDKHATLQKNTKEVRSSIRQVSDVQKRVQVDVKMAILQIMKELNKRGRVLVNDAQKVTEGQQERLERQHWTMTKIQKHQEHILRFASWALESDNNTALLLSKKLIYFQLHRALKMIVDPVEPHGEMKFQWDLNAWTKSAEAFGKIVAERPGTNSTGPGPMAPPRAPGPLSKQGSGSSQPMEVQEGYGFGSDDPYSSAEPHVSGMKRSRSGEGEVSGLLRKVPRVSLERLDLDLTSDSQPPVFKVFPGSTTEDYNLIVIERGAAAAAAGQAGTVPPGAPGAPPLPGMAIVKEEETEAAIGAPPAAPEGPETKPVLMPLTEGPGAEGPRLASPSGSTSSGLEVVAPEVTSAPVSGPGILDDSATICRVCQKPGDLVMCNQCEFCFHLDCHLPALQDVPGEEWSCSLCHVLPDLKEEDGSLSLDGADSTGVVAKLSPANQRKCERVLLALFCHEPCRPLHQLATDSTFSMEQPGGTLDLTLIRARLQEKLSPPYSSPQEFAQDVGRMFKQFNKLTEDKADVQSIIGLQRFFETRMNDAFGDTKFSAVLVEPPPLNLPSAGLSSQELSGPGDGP
UniProt A6NHR9: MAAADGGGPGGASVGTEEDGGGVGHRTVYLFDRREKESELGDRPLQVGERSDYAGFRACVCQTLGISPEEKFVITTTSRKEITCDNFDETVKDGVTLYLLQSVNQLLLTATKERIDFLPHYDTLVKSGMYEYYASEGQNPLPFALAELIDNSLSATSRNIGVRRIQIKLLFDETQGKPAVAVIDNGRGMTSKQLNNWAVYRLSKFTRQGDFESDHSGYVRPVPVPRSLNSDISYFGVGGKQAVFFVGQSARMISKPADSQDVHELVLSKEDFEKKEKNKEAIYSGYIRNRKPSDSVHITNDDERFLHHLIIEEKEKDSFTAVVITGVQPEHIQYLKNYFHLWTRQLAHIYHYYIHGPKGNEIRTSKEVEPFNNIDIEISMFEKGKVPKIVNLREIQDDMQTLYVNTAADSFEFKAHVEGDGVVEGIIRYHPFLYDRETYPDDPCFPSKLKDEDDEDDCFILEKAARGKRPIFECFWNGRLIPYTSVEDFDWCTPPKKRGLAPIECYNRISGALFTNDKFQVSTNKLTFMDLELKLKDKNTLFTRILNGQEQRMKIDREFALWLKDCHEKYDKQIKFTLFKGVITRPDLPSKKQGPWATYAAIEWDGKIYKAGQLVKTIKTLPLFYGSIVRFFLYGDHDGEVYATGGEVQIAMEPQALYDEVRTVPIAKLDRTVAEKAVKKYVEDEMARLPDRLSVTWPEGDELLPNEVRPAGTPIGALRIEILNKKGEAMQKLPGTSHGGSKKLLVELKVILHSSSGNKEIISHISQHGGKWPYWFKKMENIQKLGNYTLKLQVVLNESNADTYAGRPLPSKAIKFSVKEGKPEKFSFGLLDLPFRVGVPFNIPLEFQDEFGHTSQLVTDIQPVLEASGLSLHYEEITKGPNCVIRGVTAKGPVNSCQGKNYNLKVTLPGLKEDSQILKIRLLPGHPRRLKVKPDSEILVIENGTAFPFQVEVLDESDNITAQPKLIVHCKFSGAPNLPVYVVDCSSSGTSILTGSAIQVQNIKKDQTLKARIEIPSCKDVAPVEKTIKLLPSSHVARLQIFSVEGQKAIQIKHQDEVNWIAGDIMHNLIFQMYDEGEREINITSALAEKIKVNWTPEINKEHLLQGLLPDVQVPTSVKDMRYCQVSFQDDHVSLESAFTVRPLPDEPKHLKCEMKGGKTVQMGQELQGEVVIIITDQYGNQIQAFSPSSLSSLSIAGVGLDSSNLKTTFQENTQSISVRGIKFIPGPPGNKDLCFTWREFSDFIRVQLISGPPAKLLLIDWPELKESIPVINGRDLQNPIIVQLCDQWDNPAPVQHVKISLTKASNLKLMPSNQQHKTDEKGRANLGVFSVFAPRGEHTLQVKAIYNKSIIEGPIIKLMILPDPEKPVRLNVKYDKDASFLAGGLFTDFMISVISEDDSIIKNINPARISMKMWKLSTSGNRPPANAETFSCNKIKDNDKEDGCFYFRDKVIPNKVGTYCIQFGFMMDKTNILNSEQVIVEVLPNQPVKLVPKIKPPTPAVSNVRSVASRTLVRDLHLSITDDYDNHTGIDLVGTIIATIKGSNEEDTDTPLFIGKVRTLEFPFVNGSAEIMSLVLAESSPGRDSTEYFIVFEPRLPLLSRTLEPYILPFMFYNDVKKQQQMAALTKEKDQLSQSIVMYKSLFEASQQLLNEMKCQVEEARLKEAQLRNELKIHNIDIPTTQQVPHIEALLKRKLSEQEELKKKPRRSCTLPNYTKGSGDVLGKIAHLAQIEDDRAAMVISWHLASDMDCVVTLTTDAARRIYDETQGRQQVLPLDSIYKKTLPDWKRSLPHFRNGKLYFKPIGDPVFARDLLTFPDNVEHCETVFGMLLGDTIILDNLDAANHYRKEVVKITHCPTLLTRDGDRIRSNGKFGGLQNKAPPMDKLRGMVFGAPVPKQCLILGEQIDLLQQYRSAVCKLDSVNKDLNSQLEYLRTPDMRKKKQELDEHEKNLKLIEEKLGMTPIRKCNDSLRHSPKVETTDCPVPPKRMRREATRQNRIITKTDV
UniProt Q13185: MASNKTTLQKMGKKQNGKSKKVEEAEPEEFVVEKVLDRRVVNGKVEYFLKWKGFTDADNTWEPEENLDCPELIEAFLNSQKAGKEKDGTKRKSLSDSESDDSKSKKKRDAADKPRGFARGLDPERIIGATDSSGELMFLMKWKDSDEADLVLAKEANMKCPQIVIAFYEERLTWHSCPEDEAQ
UniProt P23198: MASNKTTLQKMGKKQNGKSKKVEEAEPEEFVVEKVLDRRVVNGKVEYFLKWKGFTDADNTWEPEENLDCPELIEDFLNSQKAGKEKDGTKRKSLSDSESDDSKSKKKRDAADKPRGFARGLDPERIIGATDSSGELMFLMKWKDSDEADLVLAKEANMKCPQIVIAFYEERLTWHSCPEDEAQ
UniProt Q13263: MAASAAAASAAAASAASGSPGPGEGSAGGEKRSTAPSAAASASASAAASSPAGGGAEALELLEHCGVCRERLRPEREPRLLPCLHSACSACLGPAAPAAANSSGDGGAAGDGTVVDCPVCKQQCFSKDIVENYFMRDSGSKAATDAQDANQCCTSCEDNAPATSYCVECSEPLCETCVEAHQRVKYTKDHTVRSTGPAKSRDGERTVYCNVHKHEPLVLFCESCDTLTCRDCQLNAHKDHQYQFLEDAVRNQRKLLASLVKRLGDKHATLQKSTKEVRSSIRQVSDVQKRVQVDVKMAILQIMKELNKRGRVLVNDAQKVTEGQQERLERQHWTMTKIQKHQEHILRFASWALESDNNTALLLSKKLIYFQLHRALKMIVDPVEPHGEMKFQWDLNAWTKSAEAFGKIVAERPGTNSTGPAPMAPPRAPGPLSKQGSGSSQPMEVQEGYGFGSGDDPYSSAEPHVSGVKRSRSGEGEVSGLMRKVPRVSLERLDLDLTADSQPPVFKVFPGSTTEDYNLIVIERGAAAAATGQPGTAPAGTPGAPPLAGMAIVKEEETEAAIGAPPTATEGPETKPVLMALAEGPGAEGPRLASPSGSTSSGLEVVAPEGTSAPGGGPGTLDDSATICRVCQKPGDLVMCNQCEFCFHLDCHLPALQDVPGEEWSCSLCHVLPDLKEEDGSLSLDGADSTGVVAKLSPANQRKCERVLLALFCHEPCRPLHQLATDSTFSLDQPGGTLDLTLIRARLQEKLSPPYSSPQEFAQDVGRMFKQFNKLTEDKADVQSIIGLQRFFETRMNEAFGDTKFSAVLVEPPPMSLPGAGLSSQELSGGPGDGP

Experiment [2] has as its target T2, GFP-tagged Lrif1 long isoform, wild type (expressed in HEK293T) (mouse) (UniProt Q8CDD9).
T2 sequence: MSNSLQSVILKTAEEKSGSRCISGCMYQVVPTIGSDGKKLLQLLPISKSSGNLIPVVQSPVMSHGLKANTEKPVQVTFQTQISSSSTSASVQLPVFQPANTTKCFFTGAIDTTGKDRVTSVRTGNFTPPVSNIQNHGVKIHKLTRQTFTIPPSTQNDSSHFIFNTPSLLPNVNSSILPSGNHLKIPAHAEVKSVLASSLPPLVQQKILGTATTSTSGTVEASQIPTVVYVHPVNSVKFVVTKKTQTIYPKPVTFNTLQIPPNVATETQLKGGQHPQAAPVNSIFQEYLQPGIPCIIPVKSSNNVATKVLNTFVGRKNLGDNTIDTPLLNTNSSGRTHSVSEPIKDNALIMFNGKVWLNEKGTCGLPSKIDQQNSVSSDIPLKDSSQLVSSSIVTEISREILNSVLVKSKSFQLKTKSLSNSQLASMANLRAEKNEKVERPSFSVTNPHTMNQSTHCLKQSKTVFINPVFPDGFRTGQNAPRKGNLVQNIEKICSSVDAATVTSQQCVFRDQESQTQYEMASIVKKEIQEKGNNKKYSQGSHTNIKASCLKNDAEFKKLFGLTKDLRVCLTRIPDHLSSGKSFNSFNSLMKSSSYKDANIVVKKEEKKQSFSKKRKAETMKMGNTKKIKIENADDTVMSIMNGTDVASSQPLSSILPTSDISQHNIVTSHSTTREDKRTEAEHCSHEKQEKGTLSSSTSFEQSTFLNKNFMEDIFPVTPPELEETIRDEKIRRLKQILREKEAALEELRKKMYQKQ

Experiment [3] concerns the target T3, GFP-tagged Lrif1 long isoform, mPVL mutant (V567D/L569E) (mouse) (UniProt Q8CDD9).
T3 sequence: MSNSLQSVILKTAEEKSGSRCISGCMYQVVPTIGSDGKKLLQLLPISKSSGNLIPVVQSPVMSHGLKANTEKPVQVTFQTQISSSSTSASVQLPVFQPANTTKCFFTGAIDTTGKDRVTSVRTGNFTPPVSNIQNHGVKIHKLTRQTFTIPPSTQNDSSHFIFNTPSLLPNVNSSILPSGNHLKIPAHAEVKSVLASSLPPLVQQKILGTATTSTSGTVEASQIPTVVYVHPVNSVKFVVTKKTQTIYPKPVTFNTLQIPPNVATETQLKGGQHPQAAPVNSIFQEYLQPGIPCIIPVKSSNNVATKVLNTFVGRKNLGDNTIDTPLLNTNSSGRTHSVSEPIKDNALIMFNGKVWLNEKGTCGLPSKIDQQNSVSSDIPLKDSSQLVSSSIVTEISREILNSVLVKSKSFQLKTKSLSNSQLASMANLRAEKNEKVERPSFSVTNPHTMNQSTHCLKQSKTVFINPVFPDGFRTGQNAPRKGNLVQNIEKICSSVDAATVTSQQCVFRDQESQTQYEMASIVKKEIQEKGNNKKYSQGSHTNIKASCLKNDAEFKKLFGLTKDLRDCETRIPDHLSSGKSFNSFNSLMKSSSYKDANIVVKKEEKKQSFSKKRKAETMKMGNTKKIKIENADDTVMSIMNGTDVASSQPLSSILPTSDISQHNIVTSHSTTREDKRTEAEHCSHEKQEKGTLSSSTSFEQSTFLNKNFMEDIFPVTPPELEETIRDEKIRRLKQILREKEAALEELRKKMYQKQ

The target in experiment [4] is Trim28 (tripartite motif-containing protein 28), endogenous in mESCs (mouse (endogenous in E14 mESCs)) (UniProt Q62318).
The target is the same in experiment [5]. The source holds these as a separate data set.

Read-outs that look alike come from different tables or passages of the source. These are yes or no findings as the source states them, for the method shown. In cells and extracts the contact can be indirect. Some results given as binding are weak or reduced against the parent protein; the word gives no strength. For part of these data: Where a sequence is shown, tags or fusion partners need not be part of it.

Turning to “human SMCHD1, endogenous in HEK293T (from UniProt A6NHR9 1-2005)”, the binding entry in experiment [1] was “no binding”; in experiment [2], “binds”.
As for “human CBX3/HP1γ, endogenous in HEK293T (from UniProt Q13185 1-183)”, the binding result was “no binding” in experiment [3] and “binds” in experiment [2].
In the case of “Cbx3, endogenous in mESCs (from UniProt P23198 1-183)”, the binding result in experiment [4] is “binds”.
In the case of “human TRIM28, endogenous in HEK293T (from UniProt Q13263 1-835)”, the binding result in experiment [1], in experiment [3] and in experiment [2] was “binds” in each case.

B1: Lrif1 long isoform, endogenous in mESCs (protein, UniProt Q8CDD9 1-755)
chain: MSNSLQSVILKTAEEKSGSRCISGCMYQVVPTIGSDGKKLLQLLPISKSSGNLIPVVQSPVMSHGLKANTEKPVQVTFQTQISSSSTSASVQLPVFQPANTTKCFFTGAIDTTGKDRVTSVRTGNFTPPVSNIQNHGVKIHKLTRQTFTIPPSTQNDSSHFIFNTPSLLPNVNSSILPSGNHLKIPAHAEVKSVLASSLPPLVQQKILGTATTSTSGTVEASQIPTVVYVHPVNSVKFVVTKKTQTIYPKPVTFNTLQIPPNVATETQLKGGQHPQAAPVNSIFQEYLQPGIPCIIPVKSSNNVATKVLNTFVGRKNLGDNTIDTPLLNTNSSGRTHSVSEPIKDNALIMFNGKVWLNEKGTCGLPSKIDQQNSVSSDIPLKDSSQLVSSSIVTEISREILNSVLVKSKSFQLKTKSLSNSQLASMANLRAEKNEKVERPSFSVTNPHTMNQSTHCLKQSKTVFINPVFPDGFRTGQNAPRKGNLVQNIEKICSSVDAATVTSQQCVFRDQESQTQYEMASIVKKEIQEKGNNKKYSQGSHTNIKASCLKNDAEFKKLFGLTKDLRVCLTRIPDHLSSGKSFNSFNSLMKSSSYKDANIVVKKEEKKQSFSKKRKAETMKMGNTKKIKIENADDTVMSIMNGTDVASSQPLSSILPTSDISQHNIVTSHSTTREDKRTEAEHCSHEKQEKGTLSSSTSFEQSTFLNKNFMEDIFPVTPPELEETIRDEKIRRLKQILREKEAALEELRKKMYQKQ
Turning to B1, the binding result in experiment [5] is “binds”.

The values are drawn from doi:10.1101/2024.11.18.624083.
